Data published in publication PMC12270202.
Results are given in words; binding and its absence hold for the method and conditions named. In cells and extracts the contact can be indirect. Binding can be weak; no strength is given. Sequences can lack the tags named with a protein.

What was measured:
Assay in all cases: co-IP; FLAG-tagged bait and HA-tagged partner co-expressed in HEK293T cells; lysed in RIPA buffer 30 min on ice; anti-FLAG M2 magnetic beads at 4°C overnight; washed 3 times with RIPA buffer; analysed by WB
[1] = target: Membralin deletion mutant ΔTM2 with a FLAG-tag
[2] = target: Membralin mutant 1–466 (entire cytoplasmic tail deleted) with a FLAG-tag
[3] = target: Membralin deletion mutant 1–345 with a FLAG-tag
[4] = target: Membralin deletion mutant ΔTM3 with a FLAG-tag
[5] = target: Membralin deletion mutant 1–322 with a FLAG-tag
[6] = target: Membralin deletion mutant ΔTM4 with a FLAG-tag
[7] = target: Membralin deletion mutant 70–628 with a FLAG-tag

Measured: binding

B1: Mannosyl-oligosaccharide 1,2-α-mannosidase (MAN1B1) with a C-terminal HA-tag (enzyme, UniProt Q9UKM7 1-699)
chain: MAACEGRRSGALGSSQSDFLTPPVGGAPWAVATTVVMYPPPPPPPHRDFISVTLSFGENYDNSKSWRRRSCWRKWKQLSRLQRNMILFLLAFLLFCGLLFYINLADHWKALAFRLEEEQKMRPEIAGLKPANPPVLPAPQKADTDPENLPEISSQKTQRHIQRGPPHLQIRPPSQDLKDGTQEEATKRQEAPVDPRPEGDPQRTVISWRGAVIEPEQGTELPSRRAEVPTKPPLPPARTQGTPVHLNYRQKGVIDVFLHAWKGYRKFAWGHDELKPVSRSFSEWFGLGLTLIDALDTMWILGLRKEFEEARKWVSKKLHFEKDVDVNLFESTIRILGGLLSAYHLSGDSLFLRKAEDFGNRLMPAFRTPSKIPYSDVNIGTGVAHPPRWTSDSTVAEVTSIQLEFRELSRLTGDKKFQEAVEKVTQHIHGLSGKKDGLVPMFINTHSGLFTHLGVFTLGARADSYYEYLLKQWIQGGKQETQLLEDYVEAIEGVRTHLLRHSEPSKLTFVGELAHGRFSAKMDHLVCFLPGTLALGVYHGLPASHMELAQELMETCYQMNRQMETGLSPEIVHFNLYPQPGRRDVEVKPADRHNLLRPETVESLFYLYRVTGDRKYQDWGWEILQSFSRFTRVPSGGYSSINNVQDPQKPEPRDKMESFFLGETLKYLFLLFSDDPNLLSLDAYVFNTEAHPLPIWTPA
binds: all assays above
